Assay results reported in article PMC8867147.
Results are given in words; binding and its absence hold for the method and conditions named.

How the values were obtained:
Experiment in all cases: two-hybrid; yeast strain AH109; AD-FIO1 (pGADT7) with MTA, MTB, HAKAI or FIP37 in pGBKT7
[1] = target: T1, FKBP12 … PROTEIN 37KD (FIP37) (Arabidopsis thaliana) (UniProt Q9ZSZ8)
T1 sequence: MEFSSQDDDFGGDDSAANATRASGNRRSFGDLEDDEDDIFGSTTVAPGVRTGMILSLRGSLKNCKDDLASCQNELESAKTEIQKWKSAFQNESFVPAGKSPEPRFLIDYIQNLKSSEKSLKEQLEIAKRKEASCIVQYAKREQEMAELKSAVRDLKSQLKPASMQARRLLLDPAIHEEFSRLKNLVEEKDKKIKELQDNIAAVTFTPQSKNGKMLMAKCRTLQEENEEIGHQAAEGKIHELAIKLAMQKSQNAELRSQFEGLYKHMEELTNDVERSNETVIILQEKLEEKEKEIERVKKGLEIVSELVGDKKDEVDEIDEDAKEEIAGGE

[2] = target: T2, HAKAI (Arabidopsis thaliana) (UniProt Q9LFC0)
T2 sequence: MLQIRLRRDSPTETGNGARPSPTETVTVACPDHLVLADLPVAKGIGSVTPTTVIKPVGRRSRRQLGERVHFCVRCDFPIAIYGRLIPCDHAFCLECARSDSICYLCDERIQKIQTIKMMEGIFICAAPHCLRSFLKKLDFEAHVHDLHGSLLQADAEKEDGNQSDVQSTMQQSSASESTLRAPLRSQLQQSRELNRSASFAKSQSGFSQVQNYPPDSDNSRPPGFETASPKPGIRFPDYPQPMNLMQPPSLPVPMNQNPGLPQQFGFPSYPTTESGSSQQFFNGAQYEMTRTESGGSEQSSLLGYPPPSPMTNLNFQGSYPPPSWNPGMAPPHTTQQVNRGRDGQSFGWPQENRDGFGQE

[3] = target: T3, MTB (Arabidopsis thaliana) (UniProt Q94AI4)
T3 sequence: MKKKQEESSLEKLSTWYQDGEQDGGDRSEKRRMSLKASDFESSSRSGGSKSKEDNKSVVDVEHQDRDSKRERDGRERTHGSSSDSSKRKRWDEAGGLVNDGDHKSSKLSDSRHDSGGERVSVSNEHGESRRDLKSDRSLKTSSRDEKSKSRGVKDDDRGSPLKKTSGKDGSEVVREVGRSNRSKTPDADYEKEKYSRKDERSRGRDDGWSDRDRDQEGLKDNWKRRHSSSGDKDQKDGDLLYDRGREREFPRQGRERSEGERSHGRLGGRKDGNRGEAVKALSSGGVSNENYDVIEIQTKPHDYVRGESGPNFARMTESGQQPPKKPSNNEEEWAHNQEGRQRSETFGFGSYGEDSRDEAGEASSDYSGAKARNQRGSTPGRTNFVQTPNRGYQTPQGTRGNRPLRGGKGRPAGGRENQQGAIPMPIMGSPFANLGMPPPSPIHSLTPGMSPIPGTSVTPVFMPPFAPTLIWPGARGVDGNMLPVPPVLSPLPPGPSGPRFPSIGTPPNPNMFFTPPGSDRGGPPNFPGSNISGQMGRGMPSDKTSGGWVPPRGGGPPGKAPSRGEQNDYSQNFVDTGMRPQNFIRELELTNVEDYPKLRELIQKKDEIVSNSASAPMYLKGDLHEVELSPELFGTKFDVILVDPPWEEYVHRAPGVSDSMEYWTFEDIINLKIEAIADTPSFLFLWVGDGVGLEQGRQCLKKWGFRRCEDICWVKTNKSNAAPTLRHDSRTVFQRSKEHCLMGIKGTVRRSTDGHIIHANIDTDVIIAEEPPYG

Measured: binding

FIONA1 (FIO1) (Arabidopsis thaliana)
no binding: all assays above
